Test results as given in PubChem BioAssay AID330 (DTP/NCI, 2004).
The list shows only some results of the screen, not a fair sample: it gathers tests that were run many times, whatever their T/C, doses with no T/C, and many T/C values between a quarter and a half above the control. Other doses and runs of a compound stand elsewhere. T/C: endpoint of the treated group in % of that of the vehicle group. Some doses have a count of surviving animals in place of a T/C: the source files T/C as zero there, which appears to mark a toxic dose or a test without result, not a measured value. Some survivor counts are full or nearly so, which does not show that the dose was tolerated: the source hardly ever lists a survival T/C far under the control, and the zero likely stands for such cases as well. Survivors were counted at the toxicity check, usually on the fifth day, unless a day is given; later deaths do not show. Schedule codes are those of the source, taken here to give the interval after Q, in days (D) or hours (H), and the number of doses after X. Some molecules as drawn cover several salts, stereoisomers or complexes of the source; a dose is that of the sample tested. Where survival is the endpoint, this PubChem deposit counts one and a half times the control or more as active, and values a quarter to a half above the control carry no call in these data; other NCI protocols may use other cut-offs. Some T/C values are followed by the survivors on the day toxicity was checked, most often the fifth; without a count, all were alive then. Some entries hold several experiments; their values stand side by side, smallest first. Additions like (4×) count equal records among those shown.

Tested on: P388 leukemia ip, CD2F1 mice, survival T/C
Experiment: NCI In Vivo Anticancer Drug Screen. Data for tumor model P388 Leukemia (intraperitoneal) in CD2F1 (CDF1) mice
Settings: T/C endpoint: median survival time, higher T/C = longer survival

COc1cc(NS(C)(=O)=O)ccc1Nc1c2ccccc2nc2ccccc12
T/C (dose: 0.25 mg/kg/injection, schedule: Q01DX009 (ip), vehicle: other): 146 % of control | T/C (dose: 1.0 mg/kg/injection, schedule: Q01DX005 (ip), vehicle: other): 143 and 145 % of control | T/C (dose: 1.0 mg/kg/injection, schedule: Q01DX009 (ip), vehicle: other): 144 % of control | T/C (dose: 1.0 mg/kg/injection, schedule: Q04DX003 (ip), vehicle: other): 132 and 138 % of control | T/C (dose: 1.25 mg/kg/injection, schedule: Q04DX003 (ip), vehicle: other): 131 % of control | T/C (dose: 1.56 mg/kg/injection, schedule: Q04DX003 (ip), vehicle: other): 143 and 145 % of control | T/C (dose: 2.0 mg/kg/injection, schedule: Q01DX005 (iv), vehicle: other): 136 % of control | T/C (dose: 2.33 mg/kg/injection, schedule: Q01DX001 (ip), vehicle: other): 134 % of control | T/C (dose: 2.5 mg/kg/injection, schedule: Q04DX002 (ip), vehicle: other, evaluated on day 30): 135, 138, 139, 140, 141, 144, 145 (2×), 146, 147, 150 (3×), 151 (2×), 152, 153, 154, 157, 158, 159, 160 (4×), 168, 170 % of control | T/C (dose: 2.5 mg/kg/injection, schedule: Q04DX002 (ip), vehicle: other, evaluated on day 35): 152 and 169 % of control | T/C (dose: 2.5 mg/kg/injection, schedule: Q04DX002 (ip), vehicle: other, evaluated on day 50): 161 % of control | T/C (dose: 2.5 mg/kg/injection, schedule: Q04DX002 (ip), vehicle: saline with Tween-80): 145, 153, 163, 166, 172 % of control | T/C (dose: 2.5 mg/kg/injection, schedule: Q04DX003 (ip), vehicle: other, evaluated on day 5): 134 % of control | T/C (dose: 2.5 mg/kg/injection, schedule: Q04DX003 (ip), vehicle: other, evaluated on day 30): 137 % of control | T/C (dose: 2.59 mg/kg/injection, schedule: Q04DX002 (ip), vehicle: other): 154, 159, 161, 165 % of control | T/C (dose: 2.59 mg/kg/injection, schedule: Q04DX003 (ip), vehicle: other, evaluated on day 40): 165 % of control | T/C (dose: 2.59 mg/kg/injection, schedule: Q04DX003 (ip), vehicle: other, evaluated on day 45): 122, 136, 142, 147, 154, 155, 158, 160, 161, 170, 183 % of control | T/C (dose: 2.59 mg/kg/injection, schedule: Q04DX003 (ip), vehicle: other, evaluated on day 60): 145 % of control | T/C (dose: 3.89 mg/kg/injection, schedule: Q01DX001 (ip), vehicle: other): 136 % of control | T/C (dose: 4.0 mg/kg/injection, schedule: Q04DX003 (ip), vehicle: other): 131 % of control | T/C (dose: 4.32 mg/kg/injection, schedule: Q04DX002 (ip), vehicle: other): 158 (2×), 172, 175 % of control | T/C (dose: 4.32 mg/kg/injection, schedule: Q04DX003 (ip), vehicle: other, evaluated on day 40): 184 % of control | T/C (dose: 4.32 mg/kg/injection, schedule: Q04DX003 (ip), vehicle: other, evaluated on day 45): 147, 155, 156, 158, 162 (2×), 169, 170, 171 (2×), 193 % of control | T/C (dose: 4.32 mg/kg/injection, schedule: Q04DX003 (ip), vehicle: other, evaluated on day 60): 167 % of control | T/C (dose: 5.0 mg/kg/injection, schedule: Q04DX002 (ip), vehicle: other, evaluated on day 30): 151, 152, 153 [5 of 6 alive], 158, 160 (4×), 161 (2×), 162 (2×), 163, 164, 168, 169 (3×), 172 (2×), 173, 174, 175, 178, 180, 185, 218 % of control | T/C (dose: 5.0 mg/kg/injection, schedule: Q04DX002 (ip), vehicle: other, evaluated on day 35): 161 and 189 % of control | T/C (dose: 5.0 mg/kg/injection, schedule: Q04DX002 (ip), vehicle: other, evaluated on day 50): 174 % of control | T/C (dose: 5.0 mg/kg/injection, schedule: Q04DX002 (ip), vehicle: saline with Tween-80): 155, 159, 163, 172, 183 % of control | T/C (dose: 6.48 mg/kg/injection, schedule: Q01DX001 (ip), vehicle: other): 145 % of control | survivor count (dose: 6.67 mg/kg/injection, schedule: Q01DX009 (ip), vehicle: other): 8 of 8 | T/C (dose: 7.2 mg/kg/injection, schedule: Q04DX002 (ip), vehicle: other, evaluated on day 30): 208 % of control | T/C (dose: 7.2 mg/kg/injection, schedule: Q04DX002 (ip), vehicle: other, evaluated on day 45): 178, 186, 190, 204 % of control | T/C (dose: 7.2 mg/kg/injection, schedule: Q04DX003 (ip), vehicle: other, evaluated on day 40): 194 % of control | T/C (dose: 7.2 mg/kg/injection, schedule: Q04DX003 (ip), vehicle: other, evaluated on day 45): 165, 178, 179, 181, 186 [7 of 8 alive], 187, 188 (3×), 189, 236 % of control | T/C (dose: 7.2 mg/kg/injection, schedule: Q04DX003 (ip), vehicle: other, evaluated on day 60): 168 % of control | survivor count (dose: 8.0 mg/kg/injection, schedule: Q01DX005 (ip), vehicle: other): 6 of 6 | survivor count (dose: 8.0 mg/kg/injection, schedule: Q01DX005 (iv), vehicle: other): 6 of 6 | T/C (dose: 8.0 mg/kg/injection, schedule: Q01DX005 (oral), vehicle: other): 139 % of control | T/C (dose: 8.0 mg/kg/injection, schedule: Q04DX003 (oral), vehicle: other): 126 % of control | T/C (dose: 9.0 mg/kg/injection, schedule: Q04DX003 (ip), vehicle: saline with Tween-80, evaluated on day 44): 189 % of control | T/C (dose: 9.0 mg/kg/injection, schedule: Q04DX003 (ip), vehicle: saline with Tween-80, evaluated on day 45): 152, 167, 171, 173 % of control | T/C (dose: 9.0 mg/kg/injection, schedule: Q04DX003 (ip), vehicle: saline with Tween-80, evaluated on day 60): 166 and 194 % of control (2×) | T/C (dose: 10.0 mg/kg/injection, schedule: Q04DX002 (ip), vehicle: other, evaluated on day 30): 163 [5 of 6 alive], 166, 167, 168, 174, 177 (2×), 178, 179, 180 (2×), 181, 182, 188, 190 (2×), 191, 195, 200, 201, 201 [5 of 6 alive], 203 (2×), 207, 208, 220, 222 % of control | T/C (dose: 10.0 mg/kg/injection, schedule: Q04DX002 (ip), vehicle: other, evaluated on day 35): 189 and 213 % of control | T/C (dose: 10.0 mg/kg/injection, schedule: Q04DX002 (ip), vehicle: other, evaluated on day 50): 207 % of control | T/C (dose: 10.0 mg/kg/injection, schedule: Q04DX002 (ip), vehicle: saline with Tween-80): 163, 168, 175, 190, 201 % of control | T/C (dose: 10.0 mg/kg/injection, schedule: Q04DX003 (ip), vehicle: saline with Tween-80, evaluated on day 5): 178 and 292 % of control | T/C (dose: 10.0 mg/kg/injection, schedule: Q04DX003 (ip), vehicle: saline with Tween-80, evaluated on day 7): 166 % of control | T/C (dose: 10.0 mg/kg/injection, schedule: Q04DX003 (ip), vehicle: saline with Tween-80, evaluated on day 60): 213, 214, 220 % of control | T/C (dose: 12.0 mg/kg/injection, schedule: Q04DX002 (ip), vehicle: other, evaluated on day 30): 224 % of control | T/C (dose: 12.0 mg/kg/injection, schedule: Q04DX002 (ip), vehicle: other, evaluated on day 45): 166 [7 of 8 alive], 188, 200 [7 of 8 alive], 215 % of control | T/C (dose: 12.0 mg/kg/injection, schedule: Q04DX003 (ip), vehicle: other, evaluated on day 40): 240 % of control | T/C (dose: 12.0 mg/kg/injection, schedule: Q04DX003 (ip), vehicle: other, evaluated on day 45): 196, 198 (2×), 200 (2×), 201, 209, 216, 226, 237, 269 % of control | T/C (dose: 12.0 mg/kg/injection, schedule: Q04DX003 (ip), vehicle: other, evaluated on day 60): 203 % of control | T/C (dose: 12.0 mg/kg/injection, schedule: Q04DX003 (ip), vehicle: saline with Tween-80, evaluated on day 5): 191 and 264 % of control | T/C (dose: 12.0 mg/kg/injection, schedule: Q04DX003 (ip), vehicle: saline with Tween-80, evaluated on day 30): 218 % of control
